# Test results from publication PMC9433319.
# Chains of the proteins cited; added tags and fusions are not shown.
# UniProt Q9H9B1: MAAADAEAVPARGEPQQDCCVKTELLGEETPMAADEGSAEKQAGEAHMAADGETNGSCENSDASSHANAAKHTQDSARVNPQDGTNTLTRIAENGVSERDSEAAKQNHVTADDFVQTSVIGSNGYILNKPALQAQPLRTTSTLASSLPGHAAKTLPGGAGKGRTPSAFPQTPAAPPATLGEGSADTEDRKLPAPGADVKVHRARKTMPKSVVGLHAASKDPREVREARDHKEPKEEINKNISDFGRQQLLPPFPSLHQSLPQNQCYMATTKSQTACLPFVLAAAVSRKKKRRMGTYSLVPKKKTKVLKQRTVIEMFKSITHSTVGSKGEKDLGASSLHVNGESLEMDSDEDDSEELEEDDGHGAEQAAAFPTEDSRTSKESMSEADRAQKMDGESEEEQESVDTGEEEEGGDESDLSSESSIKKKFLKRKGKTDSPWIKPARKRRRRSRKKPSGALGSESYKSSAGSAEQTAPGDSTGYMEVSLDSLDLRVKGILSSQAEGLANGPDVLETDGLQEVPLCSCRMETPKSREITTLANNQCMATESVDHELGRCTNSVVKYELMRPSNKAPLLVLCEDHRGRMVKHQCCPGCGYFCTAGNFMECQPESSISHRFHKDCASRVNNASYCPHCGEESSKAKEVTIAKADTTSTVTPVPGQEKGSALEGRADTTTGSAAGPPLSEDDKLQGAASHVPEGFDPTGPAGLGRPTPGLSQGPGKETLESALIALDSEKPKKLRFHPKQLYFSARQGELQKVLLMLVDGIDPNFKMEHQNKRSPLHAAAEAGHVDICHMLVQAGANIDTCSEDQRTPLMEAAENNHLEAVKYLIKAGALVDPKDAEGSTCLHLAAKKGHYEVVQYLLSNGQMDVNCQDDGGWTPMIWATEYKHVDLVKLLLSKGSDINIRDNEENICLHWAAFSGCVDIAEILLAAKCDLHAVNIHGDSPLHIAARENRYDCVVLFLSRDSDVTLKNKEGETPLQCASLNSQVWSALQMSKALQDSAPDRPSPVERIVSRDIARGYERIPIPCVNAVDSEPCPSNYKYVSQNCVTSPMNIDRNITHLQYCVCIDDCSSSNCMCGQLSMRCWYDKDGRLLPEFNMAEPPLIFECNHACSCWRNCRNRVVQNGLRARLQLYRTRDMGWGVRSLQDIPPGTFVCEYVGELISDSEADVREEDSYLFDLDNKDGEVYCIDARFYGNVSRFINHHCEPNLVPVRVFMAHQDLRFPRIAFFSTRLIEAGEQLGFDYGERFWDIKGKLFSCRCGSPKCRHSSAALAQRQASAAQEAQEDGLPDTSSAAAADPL
# Results are given in words; binding and its absence hold for the method and conditions named. For some of these results: Binding seen in cells or lysates may run through a third protein. Some binding calls cover weakened binding; strength is not graded here. For some of these results: Tags and fused reporters may be left off the sequences shown.
# T1: GST-tagged PRDM16 fragment, amino acids 1–223 (UniProt A2A935)
# T1 sequence: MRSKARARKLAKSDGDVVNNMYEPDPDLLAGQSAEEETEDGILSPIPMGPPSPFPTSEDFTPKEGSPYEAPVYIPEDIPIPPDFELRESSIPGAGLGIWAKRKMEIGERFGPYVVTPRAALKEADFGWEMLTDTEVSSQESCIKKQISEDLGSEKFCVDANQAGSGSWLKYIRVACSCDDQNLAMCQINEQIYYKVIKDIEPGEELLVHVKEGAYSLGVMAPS
# Experiments:
# [1] = target: PRDM16 (expressed construct; tag not told) (UniProt A2A935); test: co-IP; PRDM16–APPBP2 interaction in the presence of increasing EHMT1 (Fig. 5a); cells, tags and bait not told
# [2] = target: T1, GST-tagged PRDM16 fragment, amino acids 1–223; test: pull-down; GST-PRDM16 fragments preloaded on Glutathione-Sepharose beads, incubated with Myc-tagged APPBP2 protein for 2 h at 4 °C, washed four times, immunoblot; both purified
# [3] = target: GST-tagged PRDM16 fragment, amino acids 881–1038 (UniProt A2A935); test: as above
# [4] = target: PRDM16 (expressed construct; tag not told) (UniProt A2A935); test: co-IP; PRDM16 with WT or S561N APPBP2 (Extended Data Fig. 11a); cells, tags and bait not told
# [5] = target: PRDM16 (PR domain-containing 16), endogenous (mouse (endogenous in inguinal WAT-derived adipocytes)) (UniProt A2A935); test: co-IP; endogenous proteins in differentiated inguinal adipocytes treated with MG132; immunoprecipitation and immunoblot
Molecule,binding [1],binding [4],further results
EHMT1 (euchromatic histone-lysine N-methyltransferase 1) (from UniProt Q9H9B1 1-1298),binds,,
Myc-tagged APPBP2 (from UniProt Q92624 1-585),,,binding [2]: binds; binding [3]: binds
human APPBP2 (S561N) variant (from UniProt Q92624 1-585),,binds,
"APPBP2, endogenous (protein, UniProt Q9DAX9 1-585) MAAVELEWIPETLYNTAISAVVDNYIRSRRDIRSLPENIQFDVYYKLYQQGRLCQLGSEFCELEVFAKVLRALDKRHLLHHCFQALMDHGVKVASVLAYSFSRRCSYIAESDAAVKEKAIQVGFVLGGFLSDAGWYSDAEKVFLSCLQLCTLHDEMLHWFRAVECCVRLLHVRNGNCKYHLGEETFKLAQTYMDKLSKHGQQANRAALYGELCALLFAKSHYDEAYKWCVEAMKEITAGLPVKVVVDVLRQASKACVVKREFKKAEQLIKHAVYLARDHFGSKHPKYSDTLLDYGFYLLNVDNICQSVAIYQAALDIRQSVFGGKNIHVATAHEDLAYSSYVHQYSSGKFDNALFHAERAIGIITHILPEDHLLLASSKRVKALILEEIAIDCHNKETEQRLLQEAHDLHLSSLQLAKKAFGEFNVQTAKHYGNLGRLYQSMRKFKEAEEMHIKAIQIKEQLLGQEDYEVALSVGHLASLYNYDMNQYENAEKLYLRSIAIGKKLFGEGYSGLEYDYRGLIKLYNSIGNYEKVFEYHNVLSNWNRLRDRQYSVTDALEDVSSSPQSTEEVVQSFLMAQNVEGPSC",,,binding [5]: binds

# Further lines, with some results ahead:
binding [1],binding [4],Molecule,further results
binds,,"APPBP2, wild type (expressed construct; tag and species not told) (from UniProt Q92624 1-585)",
,binds,"human APPBP2, wild type (in the comparison with S561N) (from UniProt Q92624 1-585)",
